Library screening results

Protein sequences, listed by entry. Tags and fused reporters are not part of them.
UniProt E9BF75, entry or part of it: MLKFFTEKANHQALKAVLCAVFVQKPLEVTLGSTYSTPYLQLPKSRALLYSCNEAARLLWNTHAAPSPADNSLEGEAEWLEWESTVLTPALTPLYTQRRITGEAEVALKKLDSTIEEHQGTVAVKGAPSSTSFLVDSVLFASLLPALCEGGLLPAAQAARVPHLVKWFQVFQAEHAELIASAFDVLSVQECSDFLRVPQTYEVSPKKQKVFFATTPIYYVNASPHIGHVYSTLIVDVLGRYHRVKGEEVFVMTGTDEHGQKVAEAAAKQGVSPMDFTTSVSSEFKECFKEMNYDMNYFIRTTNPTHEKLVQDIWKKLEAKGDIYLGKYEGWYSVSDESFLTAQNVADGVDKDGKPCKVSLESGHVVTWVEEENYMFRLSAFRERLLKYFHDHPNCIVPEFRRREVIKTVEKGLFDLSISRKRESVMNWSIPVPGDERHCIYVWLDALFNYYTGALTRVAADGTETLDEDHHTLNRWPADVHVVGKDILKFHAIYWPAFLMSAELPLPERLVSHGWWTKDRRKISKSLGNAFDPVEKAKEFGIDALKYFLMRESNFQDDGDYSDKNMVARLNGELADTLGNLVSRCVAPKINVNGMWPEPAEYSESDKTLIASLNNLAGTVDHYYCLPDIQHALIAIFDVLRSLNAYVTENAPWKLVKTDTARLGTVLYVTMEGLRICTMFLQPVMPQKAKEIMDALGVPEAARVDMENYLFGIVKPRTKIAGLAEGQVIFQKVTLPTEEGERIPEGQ

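Methionyl-tRNA synthetase (putative), Leishmania donovani (UniProt E9BF75). Primary screen of methionyl-tRNA synthetase; the read-out is not stated. The test concentration is not given. Values are per cent inhibition. Size under these conditions: about 68,000 compounds, about 24 of them at 50% or above in at least one test.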

All values are in %. The controls that fix the scale are not given in the record; negative values are as filed. Compounds were drawn at random from those tested, without regard to their results.

{"structure": "Cc1cc(C)cc(C2(C(=O)N3CCCC(n4cncn4)C3)CC2)c1", "stereo": "configuration not stated", "inhibition": 8.571}
{"structure": "CC(C)OCCCNC(=O)c1cccnc1N1CCOCC1", "inhibition": 5.722}
{"structure": "CCN(CC)Cc1nc2c(o1)CN(C(=O)c1ccc3[nH]ccc3c1)C2", "inhibition": 16.38}
{"structure": "Cc1cc(NCCO)nc(N2CCCC2)c1C#N", "inhibition": 23.6}
{"structure": "Cc1noc(OCc2csc(C)n2)n1", "inhibition": 9.524}
{"structure": "CCc1nc(CN(C)CC(=O)OC(C)(C)C)cs1", "inhibition": 1.809}
{"structure": "Cc1cccc(CN2C(=O)C[C@H]3[C@@H]2CCN3Cc2nccs2)n1", "inhibition": 18.27}
{"structure": "Cc1cccc(NC(C)C(=O)Nc2nccs2)c1", "stereo": "configuration not stated", "inhibition": 2.517}
{"structure": "COc1cccc(C(=O)N2CCc3c(nc(N)[nH]c3=O)C2)c1OC", "inhibition": 12.81}
{"structure": "Cc1cc(Oc2ccccc2F)nc(C2CCCCN2)n1", "stereo": "configuration not stated", "inhibition": 12.77}
{"structure": "CCOCCC(=O)N1C[C@H]2CC[C@@H]1CN(c1ncccn1)C2", "inhibition": 13.41}
{"structure": "CCN(Cc1ccc2c(c1)OCCO2)C(=O)NC(C)Cn1ccnc1", "stereo": "configuration not stated", "inhibition": 10.12}
{"structure": "C1CCCN(CC2CCCN(Cc3noc(C4CC4)n3)C2)CC1", "stereo": "configuration not stated", "inhibition": 37.12}
{"structure": "NC(=O)C(CNC(=O)CCc1ccccc1)Cc1ccc(F)cc1", "stereo": "configuration not stated", "inhibition": 20.28}
{"structure": "c1cn(Cc2nnc(C3CCN(c4nccs4)CC3)n2C2CC2)cn1", "inhibition": 18.54}
{"structure": "O=C(c1cnn[nH]1)N(CCCO)Cc1cccnc1", "inhibition": 8.303}
{"structure": "CC(=O)Nc1ccc(CNc2cccc(CS(C)(=O)=O)c2)cc1", "inhibition": 15.32}
{"structure": "CNC(=O)c1cn(C)c(-c2nc3cc(NC(C)=O)ccc3n2C)c1OC", "inhibition": 8.182}
{"structure": "C/C=C(\\C)CN1C[C@H](NC(=O)c2cc[nH]c2C)[C@@H](C2CC2)C1", "inhibition": 16.43}
{"structure": "O=C(NCc1n[nH]c2c1CCCCC2)c1cnn2c1CCCC2", "inhibition": 13.07}
{"structure": "CN(Cc1noc2c1CCCC2)C(=O)CN1C(=O)COc2ccccc21", "inhibition": 5.177}
{"structure": "CC(C)CCN1CC[C@H](c2nnc(Cc3c[nH]c4ccccc34)o2)C1", "inhibition": 7.519}
{"structure": "CCCNC(=O)c1cnc(N(C)C)nc1COC", "inhibition": 17.84}
{"structure": "O=C1CC(NS(=O)(=O)c2ccc(F)c(Cl)c2)CN1", "stereo": "configuration not stated", "inhibition": 12.39}
{"structure": "Nc1cc(O)nc(CCNC(=O)CC[C@@H]2CCCN3CCCC[C@H]23)n1", "inhibition": 10.67}
{"structure": "COc1cc(C)ccc1S(=O)(=O)N[C@H]1CN(C(C)=O)C[C@@H]1C1CC1", "inhibition": 8.517}
{"structure": "COc1ccc(-c2ncccc2C(=O)N2C[C@H]3CC[C@@H]2C3)cn1", "inhibition": 9.025}
{"structure": "Cn1c(CS(=O)(=O)Cc2ccc(Cl)cc2)cc(=O)n(C)c1=O", "inhibition": 15.32}
{"structure": "Cc1ccc(C(=O)NS(=O)(=O)c2ccccc2Br)c(=O)[nH]1", "inhibition": 17.88}
{"structure": "CCC(CC)C(O)CNC(=O)Nc1cccc(-c2nccn2C)c1", "stereo": "configuration not stated", "inhibition": 11.61}
{"structure": "Cc1ccn2cc(C(=O)N3CCCC3c3c(C)nn(C)c3C)nc2c1", "stereo": "configuration not stated", "inhibition": 13.89}
{"structure": "c1cc(CN2CCN(Cc3ccon3)C3(CCCCC3)C2)no1", "inhibition": 19.16}
{"structure": "O=C(c1cscn1)N1CCCCC1c1nc2cc(F)ccc2[nH]1", "stereo": "configuration not stated", "inhibition": 8.782}
{"structure": "Cc1n[nH]c(C)c1C1COCCN1C(=O)c1ccccc1", "stereo": "configuration not stated", "inhibition": 3.681}
{"structure": "O=C1CC2(CCCC2)CC(=O)N1CCn1cnnc1", "inhibition": 8.672}
{"structure": "COC(=O)CNC(=O)c1cccc(C(=O)N(C)c2ccccc2)c1", "inhibition": 95.03}
{"structure": "CN(C)C1CCN(C(=O)c2n[nH]c3c2CCN(CC2CCC2)C3)CC1", "inhibition": 6.011}
{"structure": "CC(C)NC(=O)Nc1ccc(CS(=O)(=O)C(C)(C)C)cc1", "inhibition": 16.9}
{"structure": "COC(=O)CC(NC(=O)c1cccc(N2CCCC2=O)c1)C(=O)OC", "stereo": "configuration not stated", "inhibition": -3.194}
{"structure": "Cc1cc(NC(=O)NCCc2cccs2)n(C)n1", "inhibition": 10.62}
{"structure": "Cc1nc(C2CCCN2C(=O)CCc2ccc(F)cc2)ncc1C(N)=O", "stereo": "configuration not stated", "inhibition": 18.12}

3 of the entries, repeated:

{"structure": "Cc1cc(NC(=O)NCCc2cccs2)n(C)n1", "inhibition": 10.62}
{"structure": "CC(C)NC(=O)Nc1ccc(CS(=O)(=O)C(C)(C)C)cc1", "inhibition": 16.9}
{"structure": "Cc1ccn2cc(C(=O)N3CCCC3c3c(C)nn(C)c3C)nc2c1", "stereo": "configuration not stated", "inhibition": 13.89}

Measurements from “University of Dundee, Small-Polar-MMV Screening Library” (2021), ChEMBL document CHEMBL3988442.